Source: PubChem BioAssay AID504467 (National Center for Advancing Translational Sciences (NCATS), 2011)
Out of some 330,000 compounds screened, about 7,700 (2.3%) were called active. The shares of active, inactive and inconclusive entries below differ from those in the screen. Calls come from the whole dose curve; as a rule, active = well fitted inhibition curve with a large enough effect; inconclusive = small, poorly fitted or top-dose-only effect, or effect the other way; inactive = flat fitted curve, though single readings scatter. Potencies of inconclusive entries are doubtful fits and often do not repeat.

Test: qHTS screen for small molecules that inhibit ELG1-dependent DNA repair in human embryonic kidney (HEK293T) cells expressing luciferase-tagged ELG1; note: nearly all actives have a fitted effect of over 55% in size
Conditions: HEK293T ELG1-luciferase reporter, luminescence, 16 h, DNA damage induced by 5-fluorouridine; activity change, negative = inhibition: at 46.1 µM (top of the series)
Outline: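 Luminescence from the luciferase reporter, measured 30 min after ONE-Glo reagent at room temperature, was the read-out. Beforehand, 2,000 cells per well were exposed for 16 hr at 37 °C to 5-fluorouridine together with compound or vehicle.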
% is set by controls: 0 for no effect and ±100 for the full control effect; potency is the fitted concentration of half-maximal effect.

| Compound | Potency | activity change, negative = inhibition |
| --- | --- | --- |
| CCCOc1ccc(CSc2ncn[nH]2)cc1 | inconclusive: 18.4 µM [activator, single point] | – |
| Cn1c(-c2cccc([N+](=O)[O-])c2)cnc1NCc1cccc(F)c1 | – | inactive: -7.13% |
| Cc1ccnc(NC(=O)CSc2cc(=O)n(C)c3ccccc23)c1 | inconclusive: 29.1 µM [inhibitor, single point] | – |
| Cc1c(CCOC(=O)C2C3CC4CC(C3)CC2C4)sc[n+]1CC(=O)c1ccc(Br)cc1 (centres undefined) | – | inactive: 6.21% |
| CCOc1ccc(NC(=O)CSc2nc(C)c3c(c2C#N)CCCC3)cc1 | inconclusive: 35.5 µM [activator, single point] | – |
| O=C1CCCN1CCCNc1nc2c(S(=O)(=O)c3ccccc3)nnn2c2ccc(Cl)cc12 | – | inactive: -42% |
| CC(C(=O)N1CCCCC1)n1sc2ccccc2c1=O (centres undefined) | inconclusive: 18.4 µM [activator, partial curve, poor fit] | – |
| Cc1ccc(-n2c(N)c(-c3nc4ccccc4n3C)sc2=S)cc1 | inconclusive: 4.61 µM [activator, full curve] | – |
| N=C1/C(=C/c2cccs2)C(=O)N=C2SN=C(SCc3ccccc3)N12 | inconclusive: 18.4 µM [activator, single point] | – |
| COc1cc(NC(=O)Cn2c(-c3cncs3)nc3ccccc32)cc(OC)c1OC | inconclusive: 7.31 µM [inhibitor, single point] | – |
| Cc1nn2c(N3CCN(c4ccccn4)CC3)cc(C(C)C)nc2c1-c1ccccc1 | inconclusive: 29.1 µM [inhibitor, single point] | – |
| Cc1ccccc1NC(=S)C1=C(O)c2sccc2N(C)S1(=O)=O | – | inactive: 6.96% |
| O=C(Nc1ccc2nc(-c3ccccc3)[nH]c2c1)c1ccco1 | inconclusive: 6.51 µM [activator, partial curve] | – |
| COC(=O)CNC(=O)CNC(=O)c1nn(-c2ccc(OC)c(OC)c2)c(=O)c2ccccc12 | – | inactive: -0.834% |
| O=C(Cc1ccc(Cl)cc1)Nc1ccc(Cl)cn1 | – | inactive: 19.2% |
| CCOc1ccc(NS(=O)(=O)c2ccc(NS(=O)(=O)c3ccc(SC)cc3)cc2)cc1 | – | inactive: -9.04% |
| COc1cccc(C(=O)/C=C/Nc2ccc(S(=O)(=O)Nc3cccc(C(C)=O)c3)cc2)c1 | inconclusive: 20.6 µM [inhibitor, single point] | – |
| O=C(c1cc(C2CC2)nn1-c1ccccc1)N1CCN(Cc2ccc(Cl)cc2)CC1 | inconclusive: 23.1 µM [inhibitor, single point] | – |
| O=C(c1cc2cc(Cl)ccc2[nH]1)N1CCN(Cc2ccc3c(c2)OCO3)CC1 | inconclusive: 29.1 µM [inhibitor, single point] | – |
| CCOC(=O)c1cc(CC)sc1NC(=O)c1ccc(N2CCOCC2)c([N+](=O)[O-])c1 | – | inactive: 3.15% |
| O=C(CCN1C(=O)/C(=C/c2ccc3c(c2)OCO3)SC1=S)NNC(=O)c1cccnc1 | – | inactive: 12.4% |
| CCN(CC)C(=O)COc1cccc2ccccc12 | inconclusive: 20.6 µM [activator, single point] | – |

Entries of single compounds as entered above:
`CCCOc1ccc(CSc2ncn[nH]2)cc1` is listed as Potency: inconclusive: 18.4 µM [activator, single point]
`O=C(CCN1C(=O)/C(=C/c2ccc3c(c2)OCO3)SC1=S)NNC(=O)c1cccnc1` is listed as activity change, negative = inhibition: inactive: 12.4%

(continued)

| Compound | Potency | activity change, negative = inhibition |
| --- | --- | --- |
| O=C(CN(Cc1ccccc1Cl)C(=O)c1ccc(CN2CCOCC2)o1)NCc1ccccc1 | inconclusive: 29.1 µM [inhibitor, single point] | – |
| CC1CN(C(=O)c2cc([N+](=O)[O-])cc([N+](=O)[O-])c2)CC(C)O1 (centres undefined) | inconclusive: 18.3 µM [activator, partial curve] | – |
| O=C(Nc1ccc(Cl)cc1)c1sccc1-n1cccc1 | – | inactive: -6.83% |
| O=C(NCc1ccco1)c1sc2cccc(F)c2c1Cl | inconclusive: 18.4 µM [activator, partial curve, poor fit] | – |
| CCOC(=O)COn1c(=O)c(-c2cc3ccccc3o2)[n+]([O-])c2ccccc21 | inconclusive: 4.61 µM [activator, partial curve] | – |
| Cc1ccc(NC(=O)c2ccc(C)c(NC3=NC4CS(=O)(=O)CC4S3)c2)cc1C (centres undefined) | inconclusive: 29.1 µM [activator, partial curve, poor fit] | – |
| Cc1cc2cc(C#N)c(N3CCN(S(C)(=O)=O)CC3)nc2cc1C | – | inactive: -20.4% |
| CCN(CC)CCOC(=O)c1ccc(NC(=O)CCCN2C(=O)/C(=C\c3cccs3)SC2=S)cc1 | inconclusive: 18.3 µM [inhibitor, single point] | – |
| Cc1ccc2c(c1)N(CC(=O)N(Cc1ccccn1)Cc1ccco1)C(=O)C(C(C)C)O2 (centres undefined) | inconclusive: 29.1 µM [inhibitor, single point] | – |
| Cc1ccc(C(=O)CN2C(=O)c3ccccc3S2(=O)=O)cc1 | inconclusive: 18.3 µM [inhibitor, partial curve, poor fit] | – |
| COc1ccc(S(=O)(=O)NCc2nc3nc(C)cc(C)n3n2)cc1OC | – | inactive: -4.38% |
| COc1cc(C)c(Br)cc1S(=O)(=O)NCCCN1CCOCC1 | – | inactive: 13.6% |
| CCCCOC(=O)CSc1n[nH]c(=O)[nH]c1=O | – | inactive: 0.806% |
| COc1cccc(-c2cc(C(=O)Nc3cccnc3)c3ccccc3n2)c1 | inconclusive: 18.3 µM [inhibitor, single point] | – |
| CC(C)CC1(C(=O)NCCc2c[nH]c3ccccc23)C=CCN1C(=O)c1ccccc1 (centres undefined) | – | inactive: 5.15% |
| O=C(Cn1nc2ccccc2n1)N/N=C/c1cc([N+](=O)[O-])ccc1O | active: 6.51 µM | – |
| CCn1c(=O)c(C(=O)CN(C)Cc2cccc(OC)c2OC)c(N)n(Cc2ccccc2)c1=O | inconclusive: 20.6 µM [inhibitor, single point] | – |
| Cc1nc(C(=O)NNC(=O)c2cccc(Cl)c2)c(C(F)(F)F)o1 | inconclusive: 16.4 µM [inhibitor, partial curve] | – |
| COC(=O)c1c(-c2ccc3ccccc3c2)csc1NC(=O)Cc1ccc(OC)c(OC)c1 | inconclusive: 29.1 µM [inhibitor, single point] | – |
| NC(=O)c1ccsc1NC(=O)CSc1nnc(Nc2ccccc2)s1 | inconclusive: 29.1 µM [inhibitor, single point] | – |
| C/C(=N\NC(=O)c1ccc(C)cc1)c1c(C)[nH]n(-c2ccccc2)c1=O | inconclusive: 23.1 µM [inhibitor, single point] | – |
| Cc1cc(C)c2c3c(sc2n1)C(=O)N(c1ccccc1C)CC(=O)N3 | inconclusive: 23.1 µM [inhibitor, single point] | – |
